{
  "source": "paper PMC12431657",
  "about": "“Discovery and mechanistic insights of dibenzoylmethane as a broad spectrum inhibitor of coronavirus” (PLOS Pathogens, 2025)",
  "note": "Hit rate of the full screen: of about 3,300 compounds, about 60 (2%) showed an effect of 50% or more. The list shows a part of the results. Peptide text beside a SMILES is read from it.",
  "data": [
    {"system": "HCoV-OC43", "design": "species or system RD; HTS, protection from HCoV-OC43 induced cell death, luminescent cell viability (CellCounting-Lite 2.0), inhibition rate", "conditions": "24 h post infection, 1 h compound pre-incubation; 10 µM; inhibitor", "units": {"OC43 Inhibition rate": "%"}, "values": [
      {"molecule": "COc1cc2c(c(OC)c1OC)-c1c3cc4c(c1OC[C@@H](C)[C@@](C)(O)C(=O)O[C@@H]2[C@@](C)(O)[C@@H](C)C3)OCO4", "note": "[Gomisin D]", "OC43 Inhibition rate": 0.8},
      {"molecule": "O=c1c(O)c(-c2ccc(O)c(O)c2)oc2cc(O)ccc12", "note": "[Fisetin]", "OC43 Inhibition rate": 0.5},
      {"molecule": "CC1(C)CC[C@]2(C(=O)O)[C@H](O)C[C@]3(C)C(=CC[C@@H]4[C@@]5(C)C[C@H](O)[C@H](O)C(CO)(CO)[C@@H]5CC[C@]43C)[C@@H]2C1", "note": "[Platicodigenin]", "OC43 Inhibition rate": -0.7},
      {"molecule": "CCCCCC(C)O", "note": "(stereo not shown) [2-Heptanol]", "OC43 Inhibition rate": -0.1},
      {"molecule": "C=C1C=CC(C(C)C)CC1", "note": "(stereo not drawn) [β-Phellandrene]", "OC43 Inhibition rate": -0.5},
      {"molecule": "COc1cc2c3cc1Oc1c(OC)c(OC)cc4c1[C@@H](Cc1ccc(O)c(c1)Oc1ccc(cc1)C[C@@H]3N(C)CC2)N(C)CC4", "note": "[Berbamine]", "OC43 Inhibition rate": 0},
      {"molecule": "C[C@H]1COC2=C1C(=O)C(=O)c1c2ccc2c1CCCC2(C)C", "note": "[Cryptotanshinone]", "OC43 Inhibition rate": -0.3},
      {"molecule": "OC1C[C@H]2CC[C@@H](C1)N2", "note": "(stereo partly shown) [Nortropine]", "OC43 Inhibition rate": -2},
      {"molecule": "COc1ccc(-c2coc3cc(O[C@@H]4O[C@H](CO)[C@@H](O)[C@H](O)[C@H]4O)ccc3c2=O)cc1", "note": "[Ononin]", "OC43 Inhibition rate": 4.1},
      {"molecule": "COc1cc2c(cc1O)CC[n+]1cc3c4c(ccc3cc1-2)OCO4", "note": "[Groenlandicine]", "OC43 Inhibition rate": -0.3},
      {"molecule": "O=C1N[C@@H](Cc2c[nH]c3ccccc23)C(=O)N2CCC[C@@H]12", "note": "[Brevianamide F]", "OC43 Inhibition rate": -0.4},
      {"molecule": "CSC[C@H](N)C(=O)O", "note": "[S-Methyl-L-cysteine]", "OC43 Inhibition rate": 3.9},
      {"molecule": "O=C(O)[C@@H](O)Cc1ccccc1", "note": "[(S)-2-Hydroxy-3-phenylpropanoic acid]", "OC43 Inhibition rate": -0.3},
      {"molecule": "N[C@@H](CCSC[C@H](N)C(=O)O)C(=O)O", "note": "[L-Cystathionine]", "OC43 Inhibition rate": -0.3},
      {"molecule": "COc1cc(O)cc(CCc2cccc(O)c2)c1", "note": "[Batatasin III]", "OC43 Inhibition rate": 2.8},
      {"molecule": "CCCCCCCC/C=C\\CCCCCCCC(=O)O[C@H]1CC[C@@]2(C)C(=CC[C@H]3[C@@H]4CC[C@H]([C@H](C)CCCC(C)C)[C@@]4(C)CC[C@@H]32)C1", "note": "[Cholesteryl oleate]", "OC43 Inhibition rate": -0.3},
      {"molecule": "CC(C)C[C@H](N)C(=O)N[C@@H](Cc1ccccc1)C(=O)O", "note": "[Leucyl-phenylalanine] (H-Leu-Phe-OH)", "OC43 Inhibition rate": -7.7},
      {"molecule": "C[C@@H]1CC[C@]2(C(=O)O)CC[C@]3(C)C(=CC[C@@H]4[C@@]5(C)CC[C@H](O)[C@@](C)(CO)[C@@H]5CC[C@]43C)[C@@H]2[C@]1(C)O", "note": "[Rotundic acid]", "OC43 Inhibition rate": -1.3},
      {"molecule": "Cn1c[n+]([C@@H]2O[C@H](CO)[C@@H](O)[C@H]2O)c2nc(N)[nH]c(=O)c21", "note": "[7-Methylguanosine]", "OC43 Inhibition rate": -2.1}
    ]}
  ]
}
